Values from PubChem BioAssay AID1259254 (NCATS, 2017).
The deposit covers about 59,000 reagents; shown is a part drawn at random. About 1,550 of them (2.6%) count as active. 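G2 share is only a proxy for re-replication; each gene was hit by three separate siRNAs, and active genes were retested.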 The raw values are shown without normalisation. The numbers tell different reagents against one gene apart. Reagent sequences are not shown. Not given: the amount of reagent.

- Purpose: 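Genome-wide screen for genes that prevent DNA re-replication in cancer cells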 (primary screen)
- System: human HCT116 colorectal cancer cells
- Knock-down reagent: single siRNA against human genes
- Time to read-out: 3 days
- Detection: 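Nuclei stained with Hoechst and imaged; cell-cycle phase assigned by DNA content; G2 share scaled per plate, non-targeting siRNA 0%, GMNN siRNA 100%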
- Reading the numbers: G2 robust z-score and G2 cells, % of GMNN control: higher = more G2 cells, more excess DNA replication; raw share of cells in G2: higher = larger share of cells with G2 DNA content
- Hit rule: 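Active siRNAs have a G2 robust z of 5 or more median absolute deviations over the median, which in these data means about 38% or higher of GMNN control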

| target gene | reagent | G2 robust z-score | G2 cells, % of GMNN control | raw share of cells in G2 (%) | call |
| --- | --- | --- | --- | --- | --- |
| NRG4 (neuregulin 4) | 1 | -0.0751 | 2.44 | 3.92 | inactive |
| NRG4 (neuregulin 4) | 2 | 3.19 | 25.4 | 12.3 | inactive |
| NRG4 (neuregulin 4) | 3 | 0.153 | 4.04 | 4.16 | inactive |
| CCDC24 (coiled-coil domain containing 24) | 1 | -0.191 | 1.63 | 4.37 | inactive |
| CCDC24 (coiled-coil domain containing 24) | 2 | -0.625 | -1.43 | 2.47 | inactive |
| CCDC24 (coiled-coil domain containing 24) | 3 | 0.0402 | 3.25 | 4.2 | inactive |
| CCDC167 (coiled-coil domain containing 167) | 1 | -0.781 | -2.53 | 2.7 | inactive |
| CCDC167 (coiled-coil domain containing 167) | 2 | 1.28 | 12 | 6.97 | inactive |
| CCDC167 (coiled-coil domain containing 167) | 3 | -0.476 | -0.383 | 2.64 | inactive |
| PITPNM1 (phosphatidylinositol transfer protein membrane associated 1) | 1 | -0.826 | -2.85 | 3.59 | inactive |
| PITPNM1 (phosphatidylinositol transfer protein membrane associated 1) | 2 | -0.633 | -1.49 | 2.69 | inactive |
| PITPNM1 (phosphatidylinositol transfer protein membrane associated 1) | 3 | -0.721 | -2.1 | 4.41 | inactive |
| XG (Xg glycoprotein (Xg blood group)) | 1 | 3.15 | 25.1 | 16.3 | inactive |
| XG (Xg glycoprotein (Xg blood group)) | 2 | 0.274 | 4.9 | 5.84 | inactive |
| XG (Xg glycoprotein (Xg blood group)) | 3 | 0.126 | 3.85 | 4.71 | inactive |
| AFG2B (AAA ATPase AFG2B) | 1 | -0.833 | -2.89 | 4.45 | inactive |
| AFG2B (AAA ATPase AFG2B) | 2 | 4.43 | 34.2 | 16.6 | inactive |
| AFG2B (AAA ATPase AFG2B) | 3 | -0.563 | -0.993 | 4 | inactive |
| FOXP1 (forkhead box P1) | 1 | 0.184 | 4.26 | 5.6 | inactive |
| FOXP1 (forkhead box P1) | 2 | 0.669 | 7.67 | 6.5 | inactive |
| FOXP1 (forkhead box P1) | 3 | 1.56 | 13.9 | 12.5 | inactive |
| DEFB129 (defensin beta 129) | 1 | -1.16 | -5.21 | 1.55 | inactive |
| DEFB129 (defensin beta 129) | 2 | 1.65 | 14.6 | 8.95 | inactive |
| DEFB129 (defensin beta 129) | 3 | 0.167 | 4.14 | 5.84 | inactive |
| PPEF1 (protein phosphatase with EF-hand domain 1) | 1 | 2.86 | 23.1 | 12.3 | inactive |
| PPEF1 (protein phosphatase with EF-hand domain 1) | 2 | -0.124 | 2.09 | 4.93 | inactive |
| PPEF1 (protein phosphatase with EF-hand domain 1) | 3 | 1.1 | 10.7 | 6.72 | inactive |
| CATSPERB (catsper channel auxiliary subunit beta) | 1 | -1.27 | -6 | 1.95 | inactive |
| CATSPERB (catsper channel auxiliary subunit beta) | 2 | 4.4 | 33.9 | 19.1 | inactive |
| CATSPERB (catsper channel auxiliary subunit beta) | 3 | -0.734 | -2.2 | 1.78 | inactive |
| ASB12 (ankyrin repeat and SOCS box containing 12) | 1 | 0.7 | 7.89 | 6.47 | inactive |
| ASB12 (ankyrin repeat and SOCS box containing 12) | 2 | -0.983 | -3.95 | 1.69 | inactive |
| ASB12 (ankyrin repeat and SOCS box containing 12) | 3 | -0.796 | -2.63 | 2.15 | inactive |
| C7orf57 (chromosome 7 open reading frame 57) | 1 | 0.0621 | 3.4 | 5.46 | inactive |
| C7orf57 (chromosome 7 open reading frame 57) | 2 | -0.425 | -0.0219 | 3.1 | inactive |
| C7orf57 (chromosome 7 open reading frame 57) | 3 | -0.0372 | 2.71 | 3.56 | inactive |
| LINGO3 (leucine rich repeat and Ig domain containing 3) | 1 | -0.418 | 0.0262 | 3.65 | inactive |
| LINGO3 (leucine rich repeat and Ig domain containing 3) | 2 | 0.0649 | 3.42 | 4.5 | inactive |
| LINGO3 (leucine rich repeat and Ig domain containing 3) | 3 | 0.647 | 7.52 | 5.34 | inactive |
| PLEKHA3 (pleckstrin homology domain containing A3) | 1 | 0.433 | 6.01 | 7.2 | inactive |
| PLEKHA3 (pleckstrin homology domain containing A3) | 2 | -0.0424 | 2.67 | 5.81 | inactive |
| PLEKHA3 (pleckstrin homology domain containing A3) | 3 | -0.466 | -0.315 | 2.61 | inactive |
| HGD (homogentisate 1,2-dioxygenase) | 1 | -0.734 | -2.2 | 3.4 | inactive |
| HGD (homogentisate 1,2-dioxygenase) | 2 | 1.86 | 16 | 11.8 | inactive |
| HGD (homogentisate 1,2-dioxygenase) | 3 | -0.271 | 1.06 | 5.43 | inactive |
| GCSH (glycine cleavage system protein H) | 1 | 0.182 | 4.25 | 5.19 | inactive |
| GCSH (glycine cleavage system protein H) | 2 | 2.68 | 21.8 | 15.5 | inactive |
| GCSH (glycine cleavage system protein H) | 3 | 3.37 | 26.7 | 13.9 | inactive |
| FAM230B (family with sequence similarity 230 member B) | 1 | 3.85 | 30 | 13.3 | inactive |
| FAM230B (family with sequence similarity 230 member B) | 2 | 0.201 | 4.38 | 5.31 | inactive |
| FAM230B (family with sequence similarity 230 member B) | 3 | -0.446 | -0.17 | 3.35 | inactive |
| PRM3 (protamine 3) | 1 | -0.529 | -0.752 | 4.08 | inactive |
| PRM3 (protamine 3) | 2 | 0.214 | 4.47 | 7.5 | inactive |
| PRM3 (protamine 3) | 3 | 0.151 | 4.03 | 5.69 | inactive |
| TIGD6 (tigger transposable element derived 6) | 1 | 0.732 | 8.12 | 7.79 | inactive |
| TIGD6 (tigger transposable element derived 6) | 2 | -0.772 | -2.47 | 3.3 | inactive |
| TIGD6 (tigger transposable element derived 6) | 3 | 0.0674 | 3.44 | 6.86 | inactive |
| TIGD6 (tigger transposable element derived 6) | 4 | -0.852 | -3.03 | 2.39 | inactive |
| TIGD6 (tigger transposable element derived 6) | 5 | 0.11 | 3.74 | 4.19 | inactive |
| TIGD6 (tigger transposable element derived 6) | 6 | -0.932 | -3.59 | 2.24 | inactive |
| MIR22HG (MIR22 host gene) | 1 | -0.204 | 1.54 | 3.41 | inactive |
| MIR22HG (MIR22 host gene) | 2 | -0.695 | -1.92 | 3.27 | inactive |
| MIR22HG (MIR22 host gene) | 3 | -0.4 | 0.152 | 3.05 | inactive |
| LYPD8 (LY6/PLAUR domain containing 8) | 1 | -0.206 | 1.51 | 4.35 | inactive |
| LYPD8 (LY6/PLAUR domain containing 8) | 2 | 0.248 | 4.71 | 4.97 | inactive |
| LYPD8 (LY6/PLAUR domain containing 8) | 3 | -0.195 | 1.6 | 3.55 | inactive |
| ATRX (ATRX chromatin remodeler) | 1 | 2.97 | 23.9 | 12.8 | inactive |
| ATRX (ATRX chromatin remodeler) | 2 | 0.134 | 3.91 | 6.47 | inactive |
| ATRX (ATRX chromatin remodeler) | 3 | -0.688 | -1.87 | 3.29 | inactive |
| ATP12A (ATPase H+/K+ transporting non-gastric alpha2 subunit) | 1 | -0.341 | 0.57 | 5.5 | inactive |
| ATP12A (ATPase H+/K+ transporting non-gastric alpha2 subunit) | 2 | 0.132 | 3.9 | 6.1 | inactive |
| ATP12A (ATPase H+/K+ transporting non-gastric alpha2 subunit) | 3 | -0.781 | -2.52 | 3.39 | inactive |
| TCF23 (transcription factor 23) | 1 | 0.0283 | 3.17 | 4.17 | inactive |
| TCF23 (transcription factor 23) | 2 | -0.855 | -3.05 | 2.81 | inactive |
| TCF23 (transcription factor 23) | 3 | -1.09 | -4.7 | 1.46 | inactive |
| BMS1 (BMS1 ribosome biogenesis factor) | 1 | 3.27 | 26 | 17.1 | inactive |
| BMS1 (BMS1 ribosome biogenesis factor) | 2 | 1.56 | 13.9 | 9.76 | inactive |
| BMS1 (BMS1 ribosome biogenesis factor) | 3 | 5.42 | 41.1 | 18.4 | active |
| GRM3 (glutamate metabotropic receptor 3) | 1 | -0.388 | 0.237 | 5.93 | inactive |
| GRM3 (glutamate metabotropic receptor 3) | 2 | 2.28 | 19 | 11.2 | inactive |
| GRM3 (glutamate metabotropic receptor 3) | 3 | 2.39 | 19.8 | 9.34 | inactive |
| OR4C6 (olfactory receptor family 4 subfamily C member 6) | 1 | -0.0324 | 2.74 | 4.57 | inactive |
| OR4C6 (olfactory receptor family 4 subfamily C member 6) | 2 | 0.663 | 7.63 | 5.74 | inactive |
| OR4C6 (olfactory receptor family 4 subfamily C member 6) | 3 | 1.58 | 14.1 | 7.69 | inactive |
| ATP1A4 (ATPase Na+/K+ transporting subunit alpha 4) | 1 | -0.3 | 0.858 | 5.6 | inactive |
| ATP1A4 (ATPase Na+/K+ transporting subunit alpha 4) | 2 | 0.0397 | 3.25 | 5.88 | inactive |
| ATP1A4 (ATPase Na+/K+ transporting subunit alpha 4) | 3 | 0.157 | 4.08 | 5.97 | inactive |

6 entries from above, limited to “G2 robust z-score”:
GRM3 (glutamate metabotropic receptor 3) #3 = 2.39
OR4C6 (olfactory receptor family 4 subfamily C member 6) #1 = -0.0324
OR4C6 (olfactory receptor family 4 subfamily C member 6) #2 = 0.663
OR4C6 (olfactory receptor family 4 subfamily C member 6) #3 = 1.58
ATP1A4 (ATPase Na+/K+ transporting subunit alpha 4) #1 = -0.3
ATP1A4 (ATPase Na+/K+ transporting subunit alpha 4) #2 = 0.0397
